Patent publication US20160222085A1 (CHILDREN S HOSPITAL OF PHILADELPHIA, published 2016)
These are yes or no findings as the source states them, for the method shown. Binding can be weak; no strength is given.

Legend:
[1] = target: FV-810 (FV-DT), Factor V with amino acids 811-1491 deleted from the B-domain (human); test: fluorescence anisotropy, competition; unlabeled FVBR titrated into Oregon Green 488 FVBR plus FVDT; competitor: Oregon Green 488 FVBR
[2] = target: FV-810 (FV-DT), Factor V with amino acids 811-1491 deleted from the B-domain (human); test: fluorescence anisotropy, displacement; FVBR titrated into labeled active site-blocked FXa plus FVDT on PCPS liposomes; displaced ligand: labeled FXa
[3] = target: FV-810 (FV-DT), Factor V with amino acids 811-1491 deleted from the B-domain (human); test: fluorescence anisotropy, displacement; human BR titrated into 30 nM OG488-BR, 20 nM FV-810, 50 uM PCPS, 25 C; competitor: OG488-BR
[4] = target: FV-810 (FV-DT), Factor V with amino acids 811-1491 deleted from the B-domain (human); test: fluorescence anisotropy, displacement; unlabeled BR titrated into 30 nM OG488-BR, 20 nM FV-810, 50 uM PCPS; competitor: OG488-BR [inset]
[5] = target: FV-810 (FV-DT), Factor V with amino acids 811-1491 deleted from the B-domain (human); test: fluorescence anisotropy, competition; unlabeled TFPI peptide titrated into Oregon Green 488 FVBR plus FVDT; competitor: Oregon Green 488 FVBR

| binding [1] | binding [2] | binding [3] | binding [4] | binding [5] | Binder |
| --- | --- | --- | --- | --- | --- |
| binds | binds | binds | binds |  | Factor V basic region peptide (FVBR), amino acids 951-1008 of Factor V (Expressed in E. coli as a SUMO fusion; also called FV basic peptide; BR peptide) peptide: SRAWGESTPLANKPGKQSGHPKFPRVRHKSLQVRQDGGKSRLKKSQFLIKTRKKKKEK |
|  |  |  |  | binds | KKGFIQRISKGGLIKTKRKRKKQRVK [TFPI C-terminal tail peptide] |
